Laboratory results reported in the supplement of paper PMC12819154, “High-throughput peptide-centric local stability assay extends protein–ligand identification to membrane proteins, tissues and bacteria” (Nature Structural & Molecular Biology, 2025).
The other results are listed elsewhere or left out. Most entries show no effect beyond the scatter of the controls.

Amino acid sequences for entries named in this document (tags omitted). A change or cut given only in a name is not applied to a line headed by its entry.
UniProt Q47690: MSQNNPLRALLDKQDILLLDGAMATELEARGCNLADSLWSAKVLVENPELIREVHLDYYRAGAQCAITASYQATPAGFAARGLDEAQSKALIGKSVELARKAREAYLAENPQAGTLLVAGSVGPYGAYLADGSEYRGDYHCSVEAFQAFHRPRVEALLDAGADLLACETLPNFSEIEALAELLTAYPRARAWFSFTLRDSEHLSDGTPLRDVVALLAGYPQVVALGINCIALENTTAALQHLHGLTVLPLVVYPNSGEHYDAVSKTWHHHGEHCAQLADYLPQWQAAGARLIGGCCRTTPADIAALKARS
UniProt P78067: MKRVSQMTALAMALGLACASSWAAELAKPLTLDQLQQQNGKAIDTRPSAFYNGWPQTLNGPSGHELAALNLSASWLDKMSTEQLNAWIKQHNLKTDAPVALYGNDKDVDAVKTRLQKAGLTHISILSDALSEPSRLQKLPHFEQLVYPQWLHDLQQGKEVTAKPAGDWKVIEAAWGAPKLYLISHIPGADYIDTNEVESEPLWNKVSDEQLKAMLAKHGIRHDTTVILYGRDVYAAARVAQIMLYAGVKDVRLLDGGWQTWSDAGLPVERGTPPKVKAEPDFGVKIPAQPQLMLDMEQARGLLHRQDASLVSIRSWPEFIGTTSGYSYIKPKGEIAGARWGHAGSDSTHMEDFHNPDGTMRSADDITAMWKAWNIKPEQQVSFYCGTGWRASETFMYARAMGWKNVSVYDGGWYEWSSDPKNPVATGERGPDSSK
UniProt Q46798: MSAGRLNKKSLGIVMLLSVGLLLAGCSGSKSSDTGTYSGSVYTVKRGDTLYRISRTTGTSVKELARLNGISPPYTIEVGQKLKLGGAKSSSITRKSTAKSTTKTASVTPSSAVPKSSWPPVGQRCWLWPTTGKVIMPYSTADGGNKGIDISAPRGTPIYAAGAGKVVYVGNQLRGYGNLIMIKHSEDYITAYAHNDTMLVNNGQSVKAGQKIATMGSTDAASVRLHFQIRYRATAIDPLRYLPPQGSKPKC
UniProt Q47622: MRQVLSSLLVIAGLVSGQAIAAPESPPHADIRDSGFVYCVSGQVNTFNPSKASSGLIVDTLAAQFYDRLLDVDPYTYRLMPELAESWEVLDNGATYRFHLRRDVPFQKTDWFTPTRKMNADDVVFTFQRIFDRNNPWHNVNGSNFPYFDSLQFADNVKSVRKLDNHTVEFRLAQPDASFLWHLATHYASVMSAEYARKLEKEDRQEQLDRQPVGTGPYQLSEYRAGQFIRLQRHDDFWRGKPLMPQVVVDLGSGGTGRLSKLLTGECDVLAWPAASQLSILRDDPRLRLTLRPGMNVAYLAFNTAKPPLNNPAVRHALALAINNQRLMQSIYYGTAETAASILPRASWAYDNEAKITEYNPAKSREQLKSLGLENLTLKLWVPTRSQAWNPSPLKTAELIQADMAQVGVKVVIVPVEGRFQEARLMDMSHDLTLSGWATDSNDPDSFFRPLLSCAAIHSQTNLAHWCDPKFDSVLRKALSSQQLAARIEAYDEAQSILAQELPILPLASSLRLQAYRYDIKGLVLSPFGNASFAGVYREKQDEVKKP
UniProt Q47146: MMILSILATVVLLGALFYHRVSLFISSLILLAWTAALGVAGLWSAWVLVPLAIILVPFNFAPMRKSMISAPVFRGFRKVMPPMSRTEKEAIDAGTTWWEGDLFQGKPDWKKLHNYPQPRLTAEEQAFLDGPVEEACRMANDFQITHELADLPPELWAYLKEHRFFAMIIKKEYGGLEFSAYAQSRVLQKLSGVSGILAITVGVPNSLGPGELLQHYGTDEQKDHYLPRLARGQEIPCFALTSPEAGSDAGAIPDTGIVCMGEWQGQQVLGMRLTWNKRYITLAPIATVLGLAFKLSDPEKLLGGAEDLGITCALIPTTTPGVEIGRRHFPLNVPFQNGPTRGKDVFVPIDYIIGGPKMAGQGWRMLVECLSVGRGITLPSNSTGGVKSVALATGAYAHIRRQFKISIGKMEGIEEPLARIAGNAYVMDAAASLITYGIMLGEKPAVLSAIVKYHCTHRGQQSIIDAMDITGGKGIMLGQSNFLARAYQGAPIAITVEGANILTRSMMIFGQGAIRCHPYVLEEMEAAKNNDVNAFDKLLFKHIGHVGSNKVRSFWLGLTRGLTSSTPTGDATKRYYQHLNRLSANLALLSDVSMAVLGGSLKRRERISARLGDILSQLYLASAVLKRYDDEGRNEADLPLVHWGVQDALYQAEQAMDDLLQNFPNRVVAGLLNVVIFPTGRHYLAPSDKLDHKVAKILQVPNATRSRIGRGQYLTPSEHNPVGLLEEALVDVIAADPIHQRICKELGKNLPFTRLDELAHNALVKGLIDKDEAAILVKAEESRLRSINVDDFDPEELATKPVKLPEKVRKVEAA
UniProt P77790: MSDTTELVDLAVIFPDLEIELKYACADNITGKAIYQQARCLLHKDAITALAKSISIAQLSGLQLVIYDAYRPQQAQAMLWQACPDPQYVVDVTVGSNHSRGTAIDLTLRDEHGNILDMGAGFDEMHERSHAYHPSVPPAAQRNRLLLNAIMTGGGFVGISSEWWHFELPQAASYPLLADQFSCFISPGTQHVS
UniProt Q46939: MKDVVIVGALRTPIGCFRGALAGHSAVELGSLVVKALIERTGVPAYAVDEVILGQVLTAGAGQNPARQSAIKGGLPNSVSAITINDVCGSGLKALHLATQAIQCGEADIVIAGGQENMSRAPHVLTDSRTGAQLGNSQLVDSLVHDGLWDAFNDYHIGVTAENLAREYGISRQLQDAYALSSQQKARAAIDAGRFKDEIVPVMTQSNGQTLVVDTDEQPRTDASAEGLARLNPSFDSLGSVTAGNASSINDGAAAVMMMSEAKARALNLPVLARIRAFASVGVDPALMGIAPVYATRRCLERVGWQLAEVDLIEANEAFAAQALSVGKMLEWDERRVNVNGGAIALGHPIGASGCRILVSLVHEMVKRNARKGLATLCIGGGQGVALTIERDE
UniProt Q47274: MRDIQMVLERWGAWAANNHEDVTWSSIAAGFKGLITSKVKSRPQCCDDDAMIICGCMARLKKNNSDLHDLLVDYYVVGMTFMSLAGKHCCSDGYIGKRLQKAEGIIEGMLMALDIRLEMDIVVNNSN
UniProt P77689: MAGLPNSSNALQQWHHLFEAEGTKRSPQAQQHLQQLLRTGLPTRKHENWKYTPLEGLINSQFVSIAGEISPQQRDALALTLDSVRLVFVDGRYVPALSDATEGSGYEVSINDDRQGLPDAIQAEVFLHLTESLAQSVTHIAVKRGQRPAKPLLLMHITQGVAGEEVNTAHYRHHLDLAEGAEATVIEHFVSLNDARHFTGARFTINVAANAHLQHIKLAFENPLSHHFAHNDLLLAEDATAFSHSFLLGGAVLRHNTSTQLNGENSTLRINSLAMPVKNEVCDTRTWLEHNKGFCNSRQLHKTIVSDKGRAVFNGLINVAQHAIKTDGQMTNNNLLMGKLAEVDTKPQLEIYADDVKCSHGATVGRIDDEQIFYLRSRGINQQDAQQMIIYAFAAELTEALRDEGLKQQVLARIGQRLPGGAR
UniProt P77736: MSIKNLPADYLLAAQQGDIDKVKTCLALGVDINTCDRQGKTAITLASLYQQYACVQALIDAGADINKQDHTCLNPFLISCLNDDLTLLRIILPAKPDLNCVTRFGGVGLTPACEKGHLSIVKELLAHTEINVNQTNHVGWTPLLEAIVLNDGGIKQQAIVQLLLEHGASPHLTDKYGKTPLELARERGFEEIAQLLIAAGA
UniProt Q46809: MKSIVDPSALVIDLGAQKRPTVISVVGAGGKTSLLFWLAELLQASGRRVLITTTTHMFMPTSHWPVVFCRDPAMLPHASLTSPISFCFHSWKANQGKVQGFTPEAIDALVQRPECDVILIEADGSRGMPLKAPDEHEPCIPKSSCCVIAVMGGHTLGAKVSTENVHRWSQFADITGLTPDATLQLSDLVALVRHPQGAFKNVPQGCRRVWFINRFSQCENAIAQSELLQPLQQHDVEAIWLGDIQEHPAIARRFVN
UniProt Q47156: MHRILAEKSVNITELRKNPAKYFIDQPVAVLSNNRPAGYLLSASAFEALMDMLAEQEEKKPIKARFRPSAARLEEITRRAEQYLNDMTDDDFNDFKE
UniProt P77748: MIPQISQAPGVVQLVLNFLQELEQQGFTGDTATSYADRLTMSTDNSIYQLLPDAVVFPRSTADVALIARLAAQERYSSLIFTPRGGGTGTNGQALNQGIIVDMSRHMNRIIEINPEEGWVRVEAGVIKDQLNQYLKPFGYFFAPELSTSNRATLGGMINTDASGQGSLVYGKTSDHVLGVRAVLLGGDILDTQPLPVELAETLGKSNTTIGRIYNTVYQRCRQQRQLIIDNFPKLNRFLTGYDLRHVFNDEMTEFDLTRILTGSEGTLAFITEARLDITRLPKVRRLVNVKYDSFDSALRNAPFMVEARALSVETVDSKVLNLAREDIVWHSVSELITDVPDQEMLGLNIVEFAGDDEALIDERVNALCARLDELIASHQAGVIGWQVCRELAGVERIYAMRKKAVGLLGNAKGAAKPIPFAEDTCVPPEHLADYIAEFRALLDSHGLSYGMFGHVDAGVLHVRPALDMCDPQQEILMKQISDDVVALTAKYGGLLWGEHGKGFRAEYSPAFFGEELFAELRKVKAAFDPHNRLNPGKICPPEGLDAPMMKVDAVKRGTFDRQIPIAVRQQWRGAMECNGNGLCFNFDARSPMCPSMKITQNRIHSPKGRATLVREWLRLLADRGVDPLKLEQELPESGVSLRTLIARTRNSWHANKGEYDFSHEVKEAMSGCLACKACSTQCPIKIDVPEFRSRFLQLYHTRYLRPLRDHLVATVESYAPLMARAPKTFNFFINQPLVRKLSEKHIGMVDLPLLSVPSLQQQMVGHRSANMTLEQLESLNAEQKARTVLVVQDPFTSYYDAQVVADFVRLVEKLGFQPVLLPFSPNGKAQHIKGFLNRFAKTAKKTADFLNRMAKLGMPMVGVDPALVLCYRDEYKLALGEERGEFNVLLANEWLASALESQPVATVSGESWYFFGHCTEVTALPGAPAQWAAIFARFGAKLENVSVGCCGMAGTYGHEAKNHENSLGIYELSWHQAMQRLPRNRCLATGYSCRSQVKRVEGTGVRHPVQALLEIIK
UniProt P77756: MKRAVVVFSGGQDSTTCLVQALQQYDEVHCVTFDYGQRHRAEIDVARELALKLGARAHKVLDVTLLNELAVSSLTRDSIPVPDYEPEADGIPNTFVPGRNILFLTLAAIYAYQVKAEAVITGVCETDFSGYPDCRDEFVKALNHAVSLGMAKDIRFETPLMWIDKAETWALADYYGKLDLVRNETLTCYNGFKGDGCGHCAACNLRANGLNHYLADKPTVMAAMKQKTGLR
UniProt Q46898: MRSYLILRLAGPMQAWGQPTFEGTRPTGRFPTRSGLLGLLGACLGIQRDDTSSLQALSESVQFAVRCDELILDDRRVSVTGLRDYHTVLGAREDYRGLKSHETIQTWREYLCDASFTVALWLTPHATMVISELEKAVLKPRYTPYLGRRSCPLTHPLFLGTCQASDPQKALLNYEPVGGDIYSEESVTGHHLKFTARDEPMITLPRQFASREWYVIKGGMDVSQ
UniProt P78061: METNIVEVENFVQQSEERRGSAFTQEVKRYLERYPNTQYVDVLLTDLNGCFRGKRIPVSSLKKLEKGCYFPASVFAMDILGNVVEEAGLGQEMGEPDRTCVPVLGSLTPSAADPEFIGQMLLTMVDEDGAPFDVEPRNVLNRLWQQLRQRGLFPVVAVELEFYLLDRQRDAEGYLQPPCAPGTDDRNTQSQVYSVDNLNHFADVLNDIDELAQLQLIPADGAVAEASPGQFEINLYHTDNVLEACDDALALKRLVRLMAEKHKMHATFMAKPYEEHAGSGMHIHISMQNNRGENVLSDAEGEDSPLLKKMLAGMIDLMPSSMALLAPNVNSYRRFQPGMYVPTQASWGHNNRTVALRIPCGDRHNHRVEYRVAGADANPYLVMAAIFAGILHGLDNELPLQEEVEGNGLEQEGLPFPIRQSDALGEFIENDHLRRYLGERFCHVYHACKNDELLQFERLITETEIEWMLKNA
UniProt Q47083: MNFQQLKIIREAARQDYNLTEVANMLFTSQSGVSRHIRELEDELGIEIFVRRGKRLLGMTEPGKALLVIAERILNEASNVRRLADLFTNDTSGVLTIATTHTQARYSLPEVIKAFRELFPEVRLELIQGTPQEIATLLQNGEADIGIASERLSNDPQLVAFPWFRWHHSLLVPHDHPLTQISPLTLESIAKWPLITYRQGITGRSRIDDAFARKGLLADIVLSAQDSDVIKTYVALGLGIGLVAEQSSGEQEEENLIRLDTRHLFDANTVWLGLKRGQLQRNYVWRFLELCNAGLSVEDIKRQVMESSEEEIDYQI
UniProt Q47679: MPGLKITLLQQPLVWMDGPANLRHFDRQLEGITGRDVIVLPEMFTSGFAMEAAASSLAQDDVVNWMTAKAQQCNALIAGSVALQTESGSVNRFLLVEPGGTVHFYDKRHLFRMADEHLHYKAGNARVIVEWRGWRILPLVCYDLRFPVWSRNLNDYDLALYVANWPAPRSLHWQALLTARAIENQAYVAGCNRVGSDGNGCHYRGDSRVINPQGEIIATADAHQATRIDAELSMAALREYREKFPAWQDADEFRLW

Compound: CC1(C)S[C@@H]2[C@H](NC(=O)[C@H](N)c3ccccc3)C(=O)N2[C@H]1C(=O)O [ampicillin]
Assay: log2 fold change of tryptic peptide abundance, ligand vs vehicle (limited proteolysis) (log2 ratio); higher = more trypsin-susceptible (destabilized)
Conditions: ligand concentration: 10 uM; sample: E. coli crude lysate

Row | Target | log2 fold change
1 | UniProt P77806 (peptide sequence: LAHHVAQGANQYAPMTGVQALR, peptide start residue: 52) | 0.0665
2 | UniProt P80668 (peptide sequence: ISFTGSTATGK, peptide start residue: 246) | -0.412
3 | UniProt P77783 (peptide sequence: EKLDVPIK, peptide start residue: 458) | 0.313
4 | UniProt Q46948 (peptide sequence: IIDLLVGR, peptide start residue: 168) | -0.272
5 | UniProt Q47690 (peptide sequence: VLVENPELIR, peptide start residue: 43) | -0.161
6 | UniProt P78067 (peptide sequence: SADDITAMWK, peptide start residue: 362) | -0.276
7 | UniProt Q2EES0 (peptide sequence: SDITELLR, peptide start residue: 64) | -0.251
8 | UniProt P77721 (peptide sequence: YHVDIMVMSCK, peptide start residue: 164) | -0.532
9 | UniProt Q6BF16 (peptide sequence: ALIGAGTVLKPEQVDALAR, peptide start residue: 60) | 0.372
10 | UniProt Q46911 (peptide sequence: GYTTGHSPQSKPLAQMGGLVATR, peptide start residue: 137) | 0.325
11 | UniProt Q46798 (peptide sequence: RGDTLYR, peptide start residue: 46) | 0.23
12 | UniProt Q2M7M3 (peptide sequence: SLNMEALCKDQAAKR, peptide start residue: 37) | 0.188
13 | UniProt P77739 (peptide sequence: YAGHDFFVK, peptide start residue: 37) | 0.537
14 | UniProt Q47622 (peptide sequence: GKPLMPQVVVDLGSGGTGR, peptide start residue: 240) | 0.602
15 | UniProt Q47146 (peptide sequence: SVALATGAYAHIR, peptide start residue: 388) | 0.744
16 | UniProt P77790 (peptide sequence: YACADNITGK, peptide start residue: 23) | 0.243
17 | UniProt Q46939 (peptide sequence: DVVIVGALR, peptide start residue: 3) | -0.303

Reformatted: entries from further up.

| Row | Target | log2 fold change |
| --- | --- | --- |
| 4 | UniProt Q46948 (peptide sequence: IIDLLVGR, peptide start residue: 168) | -0.272 |
| 12 | UniProt Q2M7M3 (peptide sequence: SLNMEALCKDQAAKR, peptide start residue: 37) | 0.188 |

(listing goes on)

Row | Target | log2 fold change
18 | UniProt Q47274 (peptide sequence: DIQMVLER, peptide start residue: 3) | -0.384
19 | UniProt P77689 (peptide sequence: INSLAMPVKNEVCDTR, peptide start residue: 270) | -0.149
20 | UniProt P77736 (peptide sequence: IILPAKPDLNCVTR, peptide start residue: 90) | 0.258
21 | UniProt Q46809 (peptide sequence: VSTENVHR, peptide start residue: 160) | -0.117
22 | UniProt Q46906 (peptide sequence: LVTEADGIISTK, peptide start residue: 79) | -0.146
23 | UniProt Q46888 (peptide sequence: IGAEPGLGSTVK, peptide start residue: 167) | 0.0662
24 | UniProt Q47156 (peptide sequence: SVNITELR, peptide start residue: 9) | -0.0969
25 | UniProt P77748 (peptide sequence: DHLVATVESYAPLMAR, peptide start residue: 710) | 0.677
26 | UniProt P77756 (peptide sequence: ANGLNHYLADKPTVMAAMK, peptide start residue: 207) | 0.099
27 | UniProt Q46898 (peptide sequence: EDYRGLK, peptide start residue: 93) | -0.056
28 | UniProt P78061 (peptide sequence: FCHVYHACKNDELLQFER, peptide start residue: 441) | 0.22
29 | UniProt Q47083 (peptide sequence: ALLVIAER, peptide start residue: 65) | -0.171
30 | UniProt Q46915 (peptide sequence: LKGGVLPGEQEIDTVR, peptide start residue: 205) | -0.211
31 | UniProt P77766 (peptide sequence: AQIPGALEGAQR, peptide start residue: 121) | -0.242
32 | UniProt Q47679 (peptide sequence: IDAELSMAALR, peptide start residue: 228) | 0.241
33 | UniProt Q46855 (peptide sequence: LLYGETPFAR, peptide start residue: 52) | -0.121
34 | UniProt Q57083 (peptide sequence: EGEILLEHIQR, peptide start residue: 66) | 0.116
